Data taken from patent US7015190B1, “Method for enhancing long-term memory in a subject and uses thereof” (The Trustees of Columbia University in the City of New York, priority 1996, dated 2006).
These are yes or no findings as the source states them, for the method shown. A result given as binding can be weak or reduced; the word gives no strength. Sequences can lack the tags named with a protein. For part of these data: Binding seen in cells or lysates may run through a third protein. Values belong to the binder of their own block, whether it stands above or below them.

Key:
[1] = molecular target: c-fos protein; test: yeast two-hybrid
[2] = molecular target: ApC/EBP (35S-methionine-labeled, in vitro translated) (Aplysia); test: GST pull-down of 35S-labeled in vitro translated ApC/EBP

- binding [1]: binds
B1: ApCREB-2 C-terminal 118 amino acid peptide (amino acids 260-378, bZIP motif) as two-hybrid fusion (protein, not shown: large carriers)
chain: IDASKRFSPYSRSSKSKQSVKTSDAKAPRKTRTPAQPVPEHVIMEHLDKKDRKKLQNKNAAIRYRMKKKGEAQGIKGEEQELEELNTKLKTKVDDLQREIKYMKNLMEDVCKAKGIQLK

- binding [2]: binds
B2: GST-ApCREB-2 deletion mutant lacking the N-terminal 260 amino acids (protein, not shown: a dimerising Fc or GST; large carriers; small tags and cut ends)
chain: DASKRFSPYSRSSKSKQSVKTSDAKAPRKTRTPAQPVPEHVIMEHLDKKDRKKLQNKNAAIRYRMKKKGEAQGIKGEEQELEELNTKLKTKVDDLQREIKYMKNLMEDVCKAKGIQLK

- binding [1]: binds
B3: full-length ApCREB-2 as two-hybrid fusion (pGAD10 clone; pAS1 / pACT2 subclones) (protein, not shown: large carriers)
chain: MELDLWSEDFQLAREWGLEMPVVQTDGQFGDLKSTSRHGGDESLSLQPQGATLKLEPFEEDVLGAEWMESSDLGSFLDALGDNHERLHPFESNLLEFTSLITPDDSTVSKDILSSTLQFPTQPVNIPLYASHGAEDFSAETEFENHLSPPDSPEQVAPVINLEPVELTASHMTVISPDGLLGGMELASESLTFTELDFVNFNDSAVGSIGGAEELLGSPLSVDDVESTISFSGPSSPETSQSSIIESSPELYKVISTSSIDASKRFSPYSRSSKSKQSVKTSDAKAPRKTRTPAQPVPEHVIMEHLDKKDRKKLQNKNAAIRYRMKKKGEAQGIKGEEQELEELNTKLKTKVDDLQREIKYMKNLMEDVCKAKGIQLKM
